For 1 molecule, binding results are on record in paper PMC6506688.

The chains behind the UniProt entries cited, without tags or fusion partners.
UniProt P09936: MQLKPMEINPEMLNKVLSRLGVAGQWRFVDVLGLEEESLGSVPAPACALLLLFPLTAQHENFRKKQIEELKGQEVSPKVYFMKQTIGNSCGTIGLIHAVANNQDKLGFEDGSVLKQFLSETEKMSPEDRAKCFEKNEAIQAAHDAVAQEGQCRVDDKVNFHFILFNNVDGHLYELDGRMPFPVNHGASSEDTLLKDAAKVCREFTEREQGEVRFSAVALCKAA

These are yes or no findings as the source states them, for the method shown. Binding seen in cells or lysates may run through a third protein. Some entries that bind do so weakly or less than the wild type.

This assay has as its target Deubiquitinase UCHL1, endogenous in OCI-LY7 cells (human (endogenous in OCI-LY7)) (UniProt P09936). The assay is described as follows: co-IP; OCI-LY7 DLBCL cells lysed; endogenous proteins immunoprecipitated with antibodies to IgG, AIP, UCHL1, BCL6 or FBXO11 and immunoblotted. On the technique in general: In western blotting, separated proteins are transferred to a membrane and probed.

B1: Aryl hydrocarbon receptor interacting protein (AIP), endogenous in OCI-LY7 cells (protein, UniProt O00170 1-330)
chain: MADIIARLREDGIQKRVIQEGRGELPDFQDGTKATFHYRTLHSDDEGTVLDDSRARGKPMELIIGKKFKLPVWETIVCTMREGEIAQFLCDIKHVVLYPLVAKSLRNIAVGKDPLEGQRHCCGVAQMREHSSLGHADLDALQQNPQPLIFHMEMLKVESPGTYQQDPWAMTDEEKAKAVPLIHQEGNRLYREGHVKEAAAKYYDAIACLKNLQMKEQPGSPEWIQLDQQITPLLLNYCQCKLVVEEYYEVLDHCSSILNKYDDNVKAYFKRGKAHAAVWNAQEAQADFAKVLELDPALAPVVSRELRALEARIRQKDEEDKARFRGIFSH
B1: the binding result was “binds”.
